Experimental data: patent EP1878743A2, “Urotensin-II agonists and antagonists” (The Administrators of The Tulane Educational Fund, priority 2000, dated 2002)
Results are given in words; binding and its absence hold for the method and conditions named. Some binding calls cover weakened binding; strength is not graded here. Bridge positions count the residues as written; N and C are the ends. Ends that are not written are not given here.

Biological target: T1, U-II receptors (rat thoracic aorta tissue) (rat) (UniProt P49684)
T1 sequence (looked up): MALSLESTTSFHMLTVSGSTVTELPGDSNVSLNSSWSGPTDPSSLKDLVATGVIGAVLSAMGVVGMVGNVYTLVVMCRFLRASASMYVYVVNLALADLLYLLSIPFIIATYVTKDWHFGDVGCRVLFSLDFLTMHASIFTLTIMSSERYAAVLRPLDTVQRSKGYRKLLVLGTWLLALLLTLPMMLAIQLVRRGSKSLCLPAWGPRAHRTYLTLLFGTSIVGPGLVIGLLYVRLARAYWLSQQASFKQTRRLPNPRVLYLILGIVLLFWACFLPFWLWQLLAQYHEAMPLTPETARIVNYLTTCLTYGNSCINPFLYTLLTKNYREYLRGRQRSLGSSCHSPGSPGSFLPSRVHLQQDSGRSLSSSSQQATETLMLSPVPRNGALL
Assay: binding to rat aorta tissue; method not described

## DCFWKYCV (cyclic c[Cys-...-Cys] between Cys 2 and Cys 7; C-terminal -OH (free acid)) [Asp-c[Cys-Phe-Trp-Lys-Tyr-Cys]-Val-OH (SEQ ID NO: 3)]
  binding: binds
